# Reference: the supplement of paper PMC4604168 (melanoma cell lines)
# Some of the results follow. Single values are uncertain, as repeats are few or missing.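 Cells were imaged in 1,536-well plates, and nuclei stained with an antibody against cleaved PARP were counted against all DNA-stained nuclei to give the apoptosis fraction. Screening doses were chosen to leave most cells alive, and resting and induced cleaved-PARP levels differ strongly between cell lines.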
# Test system: LB2518-MEL
# Assay: cleaved PARP positive nuclei fraction relative to DMSO control; melanoma cells; higher = more apoptosis
# Settings: library dose: low library concentration; 72 h
row,SMILES,cleaved PARP positive nuclei fraction [%]
1,"Nc1ccn([C@@H]2O[C@H](CO)[C@@H](O)C2(F)F)c(=O)n1 [gemcitabine] + O=S(=O)(c1ccccc1)N(CC(F)(F)F)c1ccc(C(O)(C(F)(F)F)C(F)(F)F)cc1 [T0901317] (first compound 0.0004 µM, partner dose 1.4 µM)",74.4
2,"Nc1ncn([C@H]2C[C@H](O)[C@@H](CO)O2)c(=O)n1 [decitabine] + O=C(Nc1ccccc1)c1cc([N+](=O)[O-])ccc1Cl [GW9662] (first compound 0.1 µM, partner dose 2 µM)",143
3,"Nc1nc(F)nc2c1ncn2[C@@H]1O[C@H](CO)[C@@H](O)[C@@H]1O [fludarabine] + Cn1cc(/C=C2\C(=O)Nc3cccnc32)c2ccccc21 [GW441756] (first compound 0.2 µM, partner dose 0.4 µM)",73.6
4,"Nc1ccn([C@@H]2O[C@H](CO)[C@@H](O)C2(F)F)c(=O)n1 [gemcitabine] + CCN(CC)CCCCNc1ncc2cc(-c3cc(OC)cc(OC)c3)c(NC(=O)NC(C)(C)C)nc2n1 [PD173074] (first compound 0.0004 µM, partner dose 0.1 µM)",75
5,"CCCS(=O)(=O)Nc1ccc(F)c(C(=O)c2c[nH]c3ncc(Cl)cc23)c1F + COc1ccc(COc2ccc(Cc3cnc(N)nc3N)cc2OC)cc1 [GW2580] (first compound 0.08 µM, partner dose 1 µM)",153
6,"Nc1ccn([C@@H]2O[C@H](CO)[C@@H](O)C2(F)F)c(=O)n1 [gemcitabine] + CCc1ccc(CCOc2ccc(CC3SC(=O)NC3=O)cc2)nc1 [pioglitazone] (first compound 0.0004 µM, partner dose 2 µM)",80.8
7,"Nc1ncn([C@H]2C[C@H](O)[C@@H](CO)O2)c(=O)n1 [decitabine] + Oc1cc(-c2nc(-c3ccccc3)[nH]c2-c2ccncc2)ccc1Cl [L779450] (first compound 0.1 µM, partner dose 0.2 µM)",93.2
8,"CNC(=O)c1cc(Oc2ccc(NC(=O)Nc3ccc(Cl)c(C(F)(F)F)c3)cc2)ccn1 [sorafenib] + Cc1cc([N+](=O)[O-])ccc1NS(=O)(=O)c1cc(Cl)ccc1Cl [FH535] (first compound 0.4 µM, partner dose 1 µM)",62.6
9,"O=C(O)c1ccc2c(c1)nc(Nc1cccc(Cl)c1)c1ccncc12 + N#Cc1c(O)c2c(-c3ccc(-c4ccccc4O)cc3)csc2[nH]c1=O [A769662] (first compound 0.4 µM, partner dose 2 µM)",127
10,"Nc1ccn([C@@H]2O[C@H](CO)[C@@H](O)C2(F)F)c(=O)n1 [gemcitabine] + COc1ccc(COc2ccc(Cc3cnc(N)nc3N)cc2OC)cc1 [GW2580] (first compound 0.0004 µM, partner dose 1 µM)",209
11,"Nc1ncn([C@H]2C[C@H](O)[C@@H](CO)O2)c(=O)n1 [decitabine] + O=C1NC(=O)/C(=C/c2ccc(-c3ccc(F)cc3O)o2)S1 [AS252424] (first compound 0.1 µM, partner dose 1 µM)",79.1
12,"CCCS(=O)(=O)Nc1ccc(F)c(C(=O)c2c[nH]c3ncc(Cl)cc23)c1F + Cn1cc(/C=C2\C(=O)Nc3cccnc32)c2ccccc21 [GW441756] (first compound 0.08 µM, partner dose 0.4 µM)",195
13,"Cc1cc(Nc2cc(N3CCN(C)CC3)nc(/C=C/c3ccccc3)n2)n[nH]1 + O=c1cc(-c2cccc3c2Sc2ccccc2S3)oc(N2CCOCC2)c1 [KU55933] (first compound 0.04 µM, partner dose 1 µM)",68.3
14,"Cn1c(=O)n(-c2ccc(C(C)(C)C#N)cc2)c2c3cc(-c4cnc5ccccc5c4)ccc3ncc21 + COc1cc2ncnc(Nc3ccc(Oc4ccccc4)cc3)c2cc1OC [SrcI1] (first compound 0.004 µM, partner dose 2 µM)",126
15,"Cc1cc(Nc2cc(N3CCN(C)CC3)nc(/C=C/c3ccccc3)n2)n[nH]1 + O=S(=O)(c1ccccc1)N(CC(F)(F)F)c1ccc(C(O)(C(F)(F)F)C(F)(F)F)cc1 [T0901317] (first compound 0.04 µM, partner dose 1.4 µM)",71.7
16,"CCCS(=O)(=O)Nc1ccc(F)c(C(=O)c2c[nH]c3ncc(Cl)cc23)c1F + O=C1NC(=O)/C(=C/c2ccc(-c3ccc(F)cc3O)o2)S1 [AS252424] (first compound 0.08 µM, partner dose 1 µM)",132

row,SMILES,cleaved PARP positive nuclei fraction [%]
1,"Cn1c(=O)n(-c2ccc(C(C)(C)C#N)cc2)c2c3cc(-c4cnc5ccccc5c4)ccc3ncc21 + CC(C)CCN1c2nc(Nc3cc(F)c(O)c(F)c3)ncc2N(C)C(=O)C1C [BID1870] (first compound 0.004 µM, partner dose 0.2 µM)",127
2,"CN1CCN(c2ccc3nc(-c4c(N)c5c(F)cccc5[nH]c4=O)[nH]c3c2)CC1 [Dovitinib] + Oc1cc(-c2nc(-c3ccccc3)[nH]c2-c2ccncc2)ccc1Cl [L779450] (first compound 0.1 µM, partner dose 0.2 µM)",100
3,"Nc1nc(F)nc2c1ncn2[C@@H]1O[C@H](CO)[C@@H](O)[C@@H]1O [fludarabine] + COc1cc(N2CCC(N3CCN(C)CC3)CC2)ccc1Nc1ncc(Cl)c(Nc2ccccc2S(=O)(=O)C(C)C)n1 [NVP-TAE684] (first compound 0.2 µM, partner dose 0.08 µM)",61.8
4,"Nc1ncn([C@H]2C[C@H](O)[C@@H](CO)O2)c(=O)n1 [decitabine] + COc1ccc(-c2ccc3c(N4CCOCC4)nc(N4C[C@@H](C)O[C@@H](C)C4)nc3n2)cc1CO [KU0063794] (first compound 0.1 µM, partner dose 0.02 µM)",44.8
5,"CCCS(=O)(=O)Nc1ccc(F)c(C(=O)c2c[nH]c3ncc(Cl)cc23)c1F + Oc1cc(-c2nc(-c3ccccc3)[nH]c2-c2ccncc2)ccc1Cl [L779450] (first compound 0.08 µM, partner dose 0.2 µM)",70.1
6,"C=C(c1ccc(C(=O)O)cc1)c1cc2c(cc1C)C(C)(C)CCC2(C)C [Bexarotene] + CCCCCCCCCCCC1=C(O)C(=O)C=C(O)C1=O [Embelin] (first compound 2 µM, partner dose 1.2 µM)",27.4
7,"O=C(O)c1ccc2c(c1)nc(Nc1cccc(Cl)c1)c1ccncc12 + Oc1nc(-c2ccc(C(F)(F)F)cc2)nc2c1CSCC2 [XAV939] (first compound 0.4 µM, partner dose 2 µM)",66.5
8,"C=C(c1ccc(C(=O)O)cc1)c1cc2c(cc1C)C(C)(C)CCC2(C)C [Bexarotene] + COC(=O)c1sccc1S(=O)(=O)Nc1ccc(Nc2ccccc2)cc1OC [GSK0660] (first compound 2 µM, partner dose 1 µM)",69.1
9,"Nc1nc(F)nc2c1ncn2[C@@H]1O[C@H](CO)[C@@H](O)[C@@H]1O [fludarabine] + COc1ccc2c(c1)CCC1C2CCC2(C)C(NCCCCCCN3C(=O)C=CC3=O)CCC12 [U73122] (first compound 0.2 µM, partner dose 0.4 µM)",38.3
10,"O=C(O)[C@@H]1[O][Sb](=[O])([O][Sb]2(=[O])[O][C@H]([C@H](O)CO)[C@H](O)[C@H](C(=O)O)[O]2)[O][C@H]([C@H](O)CO)[C@@H]1O (some centres not stated) [stibogluconate] + O=C(O)C(=O)Nc1sc2c(c1C(=O)O)CCNC2 [TCS401] (first compound 2 µM, partner dose 1.66667 µM)",63.8
11,"C=C(c1ccc(C(=O)O)cc1)c1cc2c(cc1C)C(C)(C)CCC2(C)C [Bexarotene] + Cc1cc([N+](=O)[O-])ccc1NS(=O)(=O)c1cc(Cl)ccc1Cl [FH535] (first compound 2 µM, partner dose 1 µM)",74.2
12,"C=C(c1ccc(C(=O)O)cc1)c1cc2c(cc1C)C(C)(C)CCC2(C)C [Bexarotene] + COc1ccc(COc2ccc(Cc3cnc(N)nc3N)cc2OC)cc1 [GW2580] (first compound 2 µM, partner dose 1 µM)",104
13,"Nc1nc(F)nc2c1ncn2[C@@H]1O[C@H](CO)[C@@H](O)[C@@H]1O [fludarabine] + O=C(Nc1ccccc1)c1cc([N+](=O)[O-])ccc1Cl [GW9662] (first compound 0.2 µM, partner dose 2 µM)",75
14,"CC(C)C[C@H](NC(=O)[C@H](Cc1ccccc1)NC(=O)c1cnccn1)B(O)O [Bortezomib] + COC(=O)c1sccc1S(=O)(=O)Nc1ccc(Nc2ccccc2)cc1OC [GSK0660] (first compound 0.001 µM, partner dose 1 µM)",164
15,"CN1CCN(c2ccc3nc(-c4c(N)c5c(F)cccc5[nH]c4=O)[nH]c3c2)CC1 [Dovitinib] + COc1ccc(COc2ccc(Cc3cnc(N)nc3N)cc2OC)cc1 [GW2580] (first compound 0.1 µM, partner dose 1 µM)",77.1
16,"Cn1c(=O)n(-c2ccc(C(C)(C)C#N)cc2)c2c3cc(-c4cnc5ccccc5c4)ccc3ncc21 + Cc1cc([N+](=O)[O-])ccc1NS(=O)(=O)c1cc(Cl)ccc1Cl [FH535] (first compound 0.004 µM, partner dose 1 µM)",132

# 7 successive records already listed:
row,SMILES,cleaved PARP positive nuclei fraction [%]
5,"CCCS(=O)(=O)Nc1ccc(F)c(C(=O)c2c[nH]c3ncc(Cl)cc23)c1F + Oc1cc(-c2nc(-c3ccccc3)[nH]c2-c2ccncc2)ccc1Cl [L779450] (first compound 0.08 µM, partner dose 0.2 µM)",70.1
6,"C=C(c1ccc(C(=O)O)cc1)c1cc2c(cc1C)C(C)(C)CCC2(C)C [Bexarotene] + CCCCCCCCCCCC1=C(O)C(=O)C=C(O)C1=O [Embelin] (first compound 2 µM, partner dose 1.2 µM)",27.4
7,"O=C(O)c1ccc2c(c1)nc(Nc1cccc(Cl)c1)c1ccncc12 + Oc1nc(-c2ccc(C(F)(F)F)cc2)nc2c1CSCC2 [XAV939] (first compound 0.4 µM, partner dose 2 µM)",66.5
8,"C=C(c1ccc(C(=O)O)cc1)c1cc2c(cc1C)C(C)(C)CCC2(C)C [Bexarotene] + COC(=O)c1sccc1S(=O)(=O)Nc1ccc(Nc2ccccc2)cc1OC [GSK0660] (first compound 2 µM, partner dose 1 µM)",69.1
9,"Nc1nc(F)nc2c1ncn2[C@@H]1O[C@H](CO)[C@@H](O)[C@@H]1O [fludarabine] + COc1ccc2c(c1)CCC1C2CCC2(C)C(NCCCCCCN3C(=O)C=CC3=O)CCC12 [U73122] (first compound 0.2 µM, partner dose 0.4 µM)",38.3
10,"O=C(O)[C@@H]1[O][Sb](=[O])([O][Sb]2(=[O])[O][C@H]([C@H](O)CO)[C@H](O)[C@H](C(=O)O)[O]2)[O][C@H]([C@H](O)CO)[C@@H]1O (some centres not stated) [stibogluconate] + O=C(O)C(=O)Nc1sc2c(c1C(=O)O)CCNC2 [TCS401] (first compound 2 µM, partner dose 1.66667 µM)",63.8
11,"C=C(c1ccc(C(=O)O)cc1)c1cc2c(cc1C)C(C)(C)CCC2(C)C [Bexarotene] + Cc1cc([N+](=O)[O-])ccc1NS(=O)(=O)c1cc(Cl)ccc1Cl [FH535] (first compound 2 µM, partner dose 1 µM)",74.2
